This passage reports binding results from article doi:10.1101/421909.

Protein sequences, listed by entry. Tags and fused reporters are not part of them. Lines headed by an entry give the natural chain unless they say otherwise; changes in a name come on top. Residues count along the entry.
UniProt O14656, residues 21-332: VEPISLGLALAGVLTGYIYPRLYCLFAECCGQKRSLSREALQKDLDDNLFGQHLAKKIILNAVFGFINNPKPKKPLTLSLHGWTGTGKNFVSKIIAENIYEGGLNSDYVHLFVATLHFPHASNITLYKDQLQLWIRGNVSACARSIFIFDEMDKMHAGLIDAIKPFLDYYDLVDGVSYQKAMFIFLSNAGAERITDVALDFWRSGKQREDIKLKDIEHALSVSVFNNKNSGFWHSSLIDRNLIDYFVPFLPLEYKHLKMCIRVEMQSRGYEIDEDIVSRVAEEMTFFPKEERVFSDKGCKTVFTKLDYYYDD
UniProt P39685: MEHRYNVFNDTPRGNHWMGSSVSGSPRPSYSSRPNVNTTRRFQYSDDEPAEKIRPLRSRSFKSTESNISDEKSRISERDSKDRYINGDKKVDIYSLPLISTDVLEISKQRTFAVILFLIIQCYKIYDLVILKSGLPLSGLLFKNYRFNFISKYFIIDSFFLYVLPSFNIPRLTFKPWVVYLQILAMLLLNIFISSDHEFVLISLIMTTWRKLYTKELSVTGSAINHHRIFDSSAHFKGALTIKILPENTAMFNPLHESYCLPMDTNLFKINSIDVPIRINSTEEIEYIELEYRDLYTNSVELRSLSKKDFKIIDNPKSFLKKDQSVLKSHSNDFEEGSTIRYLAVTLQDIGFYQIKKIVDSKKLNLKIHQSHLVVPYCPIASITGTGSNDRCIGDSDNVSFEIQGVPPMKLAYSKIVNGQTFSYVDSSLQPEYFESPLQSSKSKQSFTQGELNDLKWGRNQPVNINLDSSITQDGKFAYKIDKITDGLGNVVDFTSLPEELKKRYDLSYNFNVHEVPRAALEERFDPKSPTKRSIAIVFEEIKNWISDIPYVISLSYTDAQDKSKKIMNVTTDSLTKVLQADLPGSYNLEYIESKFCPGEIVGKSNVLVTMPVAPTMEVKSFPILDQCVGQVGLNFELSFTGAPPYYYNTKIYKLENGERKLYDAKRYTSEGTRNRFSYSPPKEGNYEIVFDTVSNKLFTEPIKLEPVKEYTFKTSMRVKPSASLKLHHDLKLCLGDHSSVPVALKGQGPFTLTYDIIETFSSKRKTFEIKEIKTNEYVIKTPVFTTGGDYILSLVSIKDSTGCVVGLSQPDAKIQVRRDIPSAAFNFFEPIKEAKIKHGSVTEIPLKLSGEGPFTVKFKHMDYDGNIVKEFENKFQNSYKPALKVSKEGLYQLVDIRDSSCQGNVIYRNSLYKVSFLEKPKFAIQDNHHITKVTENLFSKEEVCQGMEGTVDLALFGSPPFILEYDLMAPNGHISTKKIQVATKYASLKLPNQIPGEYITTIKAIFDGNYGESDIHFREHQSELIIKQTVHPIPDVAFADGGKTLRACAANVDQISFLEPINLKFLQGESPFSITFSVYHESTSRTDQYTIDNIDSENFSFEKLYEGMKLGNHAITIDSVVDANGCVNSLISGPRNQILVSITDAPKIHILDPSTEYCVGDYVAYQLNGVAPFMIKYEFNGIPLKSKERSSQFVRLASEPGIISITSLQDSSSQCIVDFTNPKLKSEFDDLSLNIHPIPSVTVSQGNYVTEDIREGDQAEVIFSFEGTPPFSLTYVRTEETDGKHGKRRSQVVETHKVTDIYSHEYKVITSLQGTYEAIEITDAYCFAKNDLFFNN
UniProt P16474, residues 43-682: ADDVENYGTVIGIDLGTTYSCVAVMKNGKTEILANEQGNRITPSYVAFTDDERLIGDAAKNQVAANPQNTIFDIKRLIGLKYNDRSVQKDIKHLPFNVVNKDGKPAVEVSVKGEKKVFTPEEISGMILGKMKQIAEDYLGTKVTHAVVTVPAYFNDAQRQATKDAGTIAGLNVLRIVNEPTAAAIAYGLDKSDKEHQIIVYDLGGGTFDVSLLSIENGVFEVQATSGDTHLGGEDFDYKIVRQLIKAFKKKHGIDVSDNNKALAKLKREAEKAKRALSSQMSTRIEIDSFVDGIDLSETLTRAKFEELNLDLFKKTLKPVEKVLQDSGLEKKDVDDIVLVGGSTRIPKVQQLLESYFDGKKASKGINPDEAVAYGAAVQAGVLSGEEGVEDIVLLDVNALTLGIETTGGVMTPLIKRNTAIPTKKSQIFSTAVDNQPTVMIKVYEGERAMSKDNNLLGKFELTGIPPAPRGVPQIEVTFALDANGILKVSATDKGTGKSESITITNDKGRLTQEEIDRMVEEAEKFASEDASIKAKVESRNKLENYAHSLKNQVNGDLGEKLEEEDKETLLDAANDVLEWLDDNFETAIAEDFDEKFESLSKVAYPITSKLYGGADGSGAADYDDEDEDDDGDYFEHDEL
UniProt P47054: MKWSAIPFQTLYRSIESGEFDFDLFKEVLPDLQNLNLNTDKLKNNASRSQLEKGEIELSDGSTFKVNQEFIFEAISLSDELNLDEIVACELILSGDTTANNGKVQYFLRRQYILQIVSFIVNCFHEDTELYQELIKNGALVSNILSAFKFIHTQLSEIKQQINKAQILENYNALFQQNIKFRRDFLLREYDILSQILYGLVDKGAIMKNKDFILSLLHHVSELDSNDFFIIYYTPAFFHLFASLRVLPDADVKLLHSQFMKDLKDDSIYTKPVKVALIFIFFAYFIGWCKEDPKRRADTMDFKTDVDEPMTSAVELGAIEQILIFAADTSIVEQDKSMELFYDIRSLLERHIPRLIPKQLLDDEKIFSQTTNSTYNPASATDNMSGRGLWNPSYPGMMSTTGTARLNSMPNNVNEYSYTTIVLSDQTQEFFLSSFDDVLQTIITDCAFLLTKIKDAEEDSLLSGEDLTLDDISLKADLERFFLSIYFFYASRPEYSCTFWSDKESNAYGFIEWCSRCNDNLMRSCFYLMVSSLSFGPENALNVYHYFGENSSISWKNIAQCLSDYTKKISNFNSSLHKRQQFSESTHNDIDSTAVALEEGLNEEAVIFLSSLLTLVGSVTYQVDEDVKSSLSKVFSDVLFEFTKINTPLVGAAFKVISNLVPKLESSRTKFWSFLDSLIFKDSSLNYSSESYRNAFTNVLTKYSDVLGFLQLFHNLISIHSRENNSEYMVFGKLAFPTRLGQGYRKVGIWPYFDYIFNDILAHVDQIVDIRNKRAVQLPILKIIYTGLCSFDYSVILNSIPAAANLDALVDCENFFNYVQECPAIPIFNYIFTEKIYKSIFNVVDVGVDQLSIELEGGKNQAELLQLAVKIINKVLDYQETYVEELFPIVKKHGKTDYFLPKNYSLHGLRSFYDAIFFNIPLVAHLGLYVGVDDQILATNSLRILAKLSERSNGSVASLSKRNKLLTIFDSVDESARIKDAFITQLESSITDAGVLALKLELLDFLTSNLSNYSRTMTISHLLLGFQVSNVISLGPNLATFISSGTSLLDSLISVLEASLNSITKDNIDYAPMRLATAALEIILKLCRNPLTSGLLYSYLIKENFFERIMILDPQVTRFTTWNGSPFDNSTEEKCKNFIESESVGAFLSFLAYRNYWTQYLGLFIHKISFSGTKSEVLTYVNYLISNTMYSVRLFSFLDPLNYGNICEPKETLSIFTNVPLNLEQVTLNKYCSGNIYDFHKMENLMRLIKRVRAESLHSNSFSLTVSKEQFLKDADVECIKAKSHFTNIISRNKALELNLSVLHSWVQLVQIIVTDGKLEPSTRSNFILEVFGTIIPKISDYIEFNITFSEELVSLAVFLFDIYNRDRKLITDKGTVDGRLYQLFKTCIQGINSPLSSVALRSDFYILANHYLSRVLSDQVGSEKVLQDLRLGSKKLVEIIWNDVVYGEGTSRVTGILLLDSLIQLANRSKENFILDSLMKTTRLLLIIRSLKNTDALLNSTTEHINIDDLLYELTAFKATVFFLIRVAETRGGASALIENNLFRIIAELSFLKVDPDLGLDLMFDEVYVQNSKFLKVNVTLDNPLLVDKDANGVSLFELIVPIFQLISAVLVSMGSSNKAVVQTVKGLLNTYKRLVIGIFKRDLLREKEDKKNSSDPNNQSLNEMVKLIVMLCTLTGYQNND

Where two headings read alike, the source gives them in different places. Results are given in words; binding and its absence hold for the method and conditions named. In cells and extracts the contact can be indirect. Here binding means that the protein was enriched with, or labelled near, the bait; the list need not be complete. For some assays here: A no says only that the protein was not detected with the bait.

What all share (assay): affinity purification with mass spectrometry
For assay [1], the target named is TorsinA-ΔE-GFP (human) (UniProt O14656).
The target of assay [2] is TorsinA-GFP (human) (UniProt O14656).
The target of assay [3] is TorsinA-ΔE-GFP (human) (UniProt O14656). This is another data set of the same source.
For assay [4], the target named is TorsinA-GFP (human) (UniProt O14656). The source holds these as a separate data set.

For Pom152 (from UniProt P39685 1-1337), the values for the binding entry in the assay with TorsinA-ΔE-GFP (human) [1] and with TorsinA-GFP (human) [2] were “no binding” and “binds”, respectively. Regarding Kar2 (from UniProt P16474 43-682), the binding result with TorsinA-ΔE-GFP (human) [1] and with TorsinA-GFP (human) [2] was “binds” each time. Turning to Nup192 (from UniProt P47054 1-1683), the binding entry with TorsinA-GFP (human) [2] was “binds”.

B1: Mps2 (protein, UniProt P53159 1-387)
chain: MSNGAFDAIFEYAWGQIDKPISGDFIYGKDLPKLIEIIENIFQKAQKSGSYELRLPLFSEINKDLFRTFSNTKTFFKIHKEEFDDIFFNLVNHPLREILENAFIGVDSIPSDFIVSMNLNSPSKFLVENKNKNTEGAGISTPRKKLTESPIKLLSRNNIGKALEVQVEELKRELTAKQSLLQENERQVSELKIRLETYQEKYASIQQRFSDLQKARQVEDNQNSSRTSDPGSPLVTGIDQKAILEEFRRRLQRQTDTISFLKDQIRRERGLNCSNDKVSHSKRKHATTDGDGTFKNFISAVPSNIWVKATIRIIVCFALLAGVLPYIRKYVYAHDTPSQNSRLQLSWWENSGILSKIVWFFEDQTDLETEYRSNANVDDAYSRVFGI
For the molecule B1, the binding entry with TorsinA-ΔE-GFP (human) [3] and with TorsinA-GFP (human) [4] was “no binding” each time.

B2: Mps3 (protein, UniProt P47069 1-682)
chain: MNNSNEHRREEAGAANEQMPYNKAVKSAYADVLKDKMNREQEISLRAIKKGIYTDGGETDNYDMDKENDSAYEMFKKNLDFPLDQHNDDDDDDPYIEDNGQETDGYSDEDYTDEADKSFIEDSDSDSYDLESNSDFEENLESSGEAKKLKWRTYIFYGGLFFVFYFFGSFLMTTVKNNDLESHSSGATSSPGKSFSNLQKQVNHLYSELSKRDEKHSSELDKTVKIIVSQFEKNIKRLLPSNLVNFENDINSLTKQVETISTSMSELQRRNHKFTVENVTQWQDQLVKQLDTHLPQEIPVVINNSSSLLIIPELHNYLSALISDVIESPGIGTAGSAESRWEYDLNRYVKEILSNELQYIDKDYFIQEMNRRLQSNKQEIWEEITNRLETQQQQQQQQVQQDYSNVPQQYSSILMKRLIHQIYNSNQHQWEDDLDFATYVQGTKLLNHLTSPTWRQGSGVQPIELLTDSKQSSSTYWQCENEPGCSWAIRFKTPLYLTKISYMHGRFTNNLHIMNSAPRLISLYVKLSQTKEIKALQTLANQYGFGQHHKRDRNYIKIAKFEYRLTDSRIRQQMYLPPWFIQLKPLVRSIVFQVDENYGNKKFISLRKFIINGVTPQDLQIIENNEFPVLLGDTPEYGVTQNTDEGKRKVLLSKPPYASSSTSTKFHPASNVPSFGQDELDQ
With B2, the binding entry with TorsinA-ΔE-GFP (human) [3] and in the assay with TorsinA-GFP (human) [4] was “binds” in each case.

B3: Kre5 (enzyme, UniProt P22023 18-1365)
chain: WTYSLRYGIPESAQVWSILVHLLGDVDNQLLTNLYPLVTGLDDEIDIQENLVALTSNVLRERYDKEDVADLLELYASLYPMGMIQHDISSNAEQDDANSSYFVLNGNRYEKPDDVFYLKSKDLTIQQKVPDVDVIQPYDVVIGTNSEAPILILYGCPTVIDSDFEEFNRNLFMEAMNGEGKFRFIWRSTCSLDGKSVEYPLTHPLEITLQNGSRMSSIPQLKKILYTVPKEILVGADNDDQLHDLEPEELRELDLRVTSLISEFYQYKKDITATLNFTKSIVNNFPLISKQLIKVSSVNKDIITSNEELNSKGFDYNMLGLYINGQNWKITSLTPYNLLTALKTEYQSLLKITNLLQELEPSKCILDSKFLLNKFSQFSLGKLQNLQPIKMDLHTIPGFSESVIYFNDIESDPQYDELVNSVQAFFDKSKFGELPEIKQNWSEIIFVIDFARLEDSEVKEALGGLVRAVNVVSQGYPQRVGLLPFSSDSDKSVVNKIYELKNSTDNLTELKSFLETMLLADGLSANAKHSKHIPVPDVFHLLDELQIDETSIIINGEIYPFRKNAWNYLIAKVIKKDTEFIRKELSNSSPKNKQISVRDLLHYKSANLRHNKYTPNYFADSVYSSVNNTALESVCSERIGYYTKNEEYNLLHTITLVDDFGSIHALKRLRNLLHTSFVGVRIRIIHVGDISDIWYQLRGSLSQKDPIGSINTFIDALKLKKVKSHTYKKSGLNQLGLHKWLPDIPLFELQKGSFIALNGRFIHLDQNEVPETEHFEAIIKREALRTIDSVFALDLLFPGFSQEIINPDLIEMISSILTRLFYQGTHIYNNGIDYTTESSLPRMDLSEFFRPNNLTMFEDGKSASIDLLLILDPLEERTQMILSLVEQFRPLKFVNIQVILMPTLELNIVPIRRIYVDDADIVKSITSEDSRSDPEVDIEMDVPNSFIVDNNYRIKKLLIELHSFSSKTVLSTGNIDGMGGVCLALVDSAGNIIDKTTTMKTFGYGQFHTDKFLKGCYIKSCDSRYTVQSFSTDGHPDFIPSDSLDILSYNPQKIAVKISEEPTHEEEYEEGRNNDTIINIFTILESGPDEEERYMQMILSILSKCPETQKVNFFILDQPFISDTLRKSCEYINSSDEMRGNVIFLNYEWPQWLRPQRFSSRRRDVSRFLFLDVLLPQNISKVLYMSPTEVPLDPFDIFQFQGLKRAPLGLFRMSGDGYWKEGYWEKMLRENNLEFYSTEPAFLVNLERFRELDAGDKYRIHYQRISTDAMSLVNIGQDLVNNLQLEVPIRFLKGSYKKKLVINDECVSEWKKKINKFASSPGDEDVPGESVSSKYQDSDNAAPLHDEL
Turning to B3, in the assay with TorsinA-GFP (human) [4], the binding result was “binds”.

B4: Mnn2 (enzyme, UniProt P38069 1-597)
chain: MLLTKRFSKLFKLTFIVLILCGLFVITNKYMDENTSVKEYKEYLDRYVQSYSNKYSSSSDAASADDSTPLRDNDEAGNEKLKSFYNNVFNFLMVDSPKGSTAKQYNEACLLKGDIGDRPDHYKDLYKLSAKELSKCLELSPDEVASLTKSHKDYVEHIATLVSPKGTYKGSGIATVGGGKFSLMAFLIIKTLRNMGTTLPVEVLIPPGDEGETEFCNKILPKYNSKCIYVSDILPRETIEKFVFKGYQFKSLALIASSFENLLLLDADNFPIKPLDNIFNEEPYVSTGLVMWPDFWRRTTHPLYYDIAGIAVDKKKRVRNSRDDITPPAVYTKDLKDLSDVPLSDLDGTIPDVSTESGQLMINKTKHLATALLSLFYNVNGPTWYYPIFSQKAAGEGDKETFIAAANFYGLSFYQVRTRTGVEGYHDEDGFHGVAMLQHDFVQDYGRYLNAMESIGNKYGGTKSADAIKFDKNYSLEKYTEEFFDNEDLNAKNHVDVMFIHSNFPKFDPYDLSKSNFLTTNGKPARSYTALKKVKNYDIELENFKVLNEYVCVNKNPFKYLDDLLGQDKTEWKRVCGYITDRLAFLESTHDKAIAGK
As for B4, the binding entry with TorsinA-GFP (human) [4] is reported as “binds”.
